In paper PMC5239461:
No constants are given. Whether binding was seen depends on the method and setting. Some binding calls cover weakened binding; strength is not graded here.

Target: STAT3 (human (endogenous in CRC cell lines)), P40763
Assay: native gel or EMSA; extracts of CRC cell lines with or without IL-6 (10 ng/ml, 20 min) on the SIEm67 STAT1/3 response element; pre-incubation with STAT1 and/or STAT3 specific antibodies for supershift
Details: remark: other sources report otherwise

B1: STAT1, P42224 1-750 (protein)
chain: MSQWYELQQLDSKFLEQVHQLYDDSFPMEIRQYLAQWLEKQDWEHAANDVSFATIRFHDLLSQLDDQYSRFSLENNFLLQHNIRKSKRNLQDNFQEDPIQMSMIIYSCLKEERKILENAQRFNQAQSGNIQSTVMLDKQKELDSKVRNVKDKVMCIEHEIKSLEDLQDEYDFKCKTLQNREHETNGVAKSDQKQEQLLLKKMYLMLDNKRKEVVHKIIELLNVTELTQNALINDELVEWKRRQQSACIGGPPNACLDQLQNWFTIVAESLQQVRQQLKKLEELEQKYTYEHDPITKNKQVLWDRTFSLFQQLIQSSFVVERQPCMPTHPQRPLVLKTGVQFTVKLRLLVKLQELNYNLKVKVLFDKDVNERNTVKGFRKFNILGTHTKVMNMEESTNGSLAAEFRHLQLKEQKNAGTRTNEGPLIVTEELHSLSFETQLCQPGLVIDLETTSLPVVVISNVSQLPSGWASILWYNMLVAEPRNLSFFLTPPCARWAQLSEVLSWQFSSVTKRGLNVDQLNMLGEKLLGPNASPDGLIPWTRFCKENINDKNFPFWLWIESILELIKKHLLPLWNDGCIMGFISKERERALLKDQQPGTFLLRFSESSREGAITFTWVERSQNGGEPDFHAVEPYTKKELSAVTFPDIIRNYKVMAAENIPENPLKYLYPNIDKDHAFGKYYSRPKEAPEPMELDGPKGTGYIKTELISVSEVHPSRLQTTDNLLPMSPEEFDEVSRIVGSVEFDSMMNTV
In the case of B1, the binding is reported as “binds”.
